From US9090654 (dated 2015)

Assay: general procedure: peptide synthesis; chloromethylated polystyrene resin; diisopropylcarbodiimide (DIC)
Settings: whole synthesis, scale 1.3 mmoles eq.

H-D-β-Nal-Cys(Acm)-Tyr-D-Trp-Lys-Val-Cys(Acm)-Thr-NH2
crude HPLC purity (220 nm): 96%
crude mass: 870 mg
